In assay [1] the target is human LAG-3 (Bio-Layer Interferometry; construct not stated) (human) (UniProt P18627). The assay is described as follows: Bio-Layer Interferometry sandwich, LAG-3 captured by a first antibody on the sensor. On the technique in general: In BLI a coated tip is dipped into the sample, and binding shifts an interference pattern.
For assay [2] the target is unchanged. The assay can be described thus: Bio-Layer Interferometry.
Assay [3] shares this target. The assay can be described thus: Bio-Layer Interferometry, antibody bound to the sensor, LAG-3 flown over.
For assay [4], the target named is human LAG-3 coupled to phycoerythrin (human) (UniProt P18627). The assay is described as follows: blocking assay, flow cytometry: phycoerythrin-coupled human LAG-3 pre-incubated with Fab, then binding to MHC class II on Daudi cells. Background: A flow cytometer gives signals particle by particle.
Assay [5] has the same target. The assay can be described thus: blocking assay, flow cytometry: labelled LAG-3 pre-incubated with Fab, then binding to MHC class II on Daudi cells, mean fluorescence intensity.
For assay [6], the target named is LAG-3 on activated CD4+ T cells (Homo sapiens (Human)) (UniProt P18627). The assay can be described thus: flow cytometry, CD4+ T cells activated with anti-CD3/CD28 beads for 3 days.
The target is the same in assay [7]. The assay can be described thus: flow cytometry, CD4+ T cells activated with anti-CD3/CD28 beads for 3 days, IgG1 at 100, 10 and 1 nM, geometric MFI.

Chains of the proteins cited; added tags and fusions are not shown. Residues count along the entry.
UniProt P18627, residues 23-450: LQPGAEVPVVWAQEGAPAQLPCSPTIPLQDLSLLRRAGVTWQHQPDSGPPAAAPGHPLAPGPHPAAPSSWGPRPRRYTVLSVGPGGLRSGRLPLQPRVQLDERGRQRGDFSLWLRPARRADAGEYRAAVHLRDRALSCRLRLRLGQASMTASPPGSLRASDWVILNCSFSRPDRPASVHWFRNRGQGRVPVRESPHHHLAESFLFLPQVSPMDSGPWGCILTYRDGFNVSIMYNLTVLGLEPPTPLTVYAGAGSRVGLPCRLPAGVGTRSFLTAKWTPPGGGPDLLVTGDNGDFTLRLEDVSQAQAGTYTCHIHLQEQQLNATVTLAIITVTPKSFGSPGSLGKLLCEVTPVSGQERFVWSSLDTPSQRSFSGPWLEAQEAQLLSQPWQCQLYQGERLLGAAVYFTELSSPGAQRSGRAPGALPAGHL

No constants are given. Whether binding was seen depends on the method and setting. Some binding calls cover weakened binding; strength is not graded here.

B1: anti-LAG-3 antibody clone F5 (format not stated) (antibody, V domains shown)
VH: EVQLVQSGAEVKKPGASVKVSCKVSGYTLTELSMHWVRQTPGKGLEWMGGFDPEDGETIYAQKFQGRVTMTEDTSTDTAYMELSSLRSEDTAVYYCATTWFGELYYWGQGTLVTVSS
VL: ETTLTQSPGTLSLSPGERATLSCRASQSVSSGYLAWYQQKPGQAPRLLIYDASSRATGIPDRFSGSGSGADFTLTISRLQPEDFAVYYCQQYGSSRPGLTFGGGTRVEIK
Turning to B1, the binding result in assay [1], in assay [2] and in assay [3] was “binds” throughout.

B2: anti-LAG-3 antibody clone F5 Fab (Fab, V domains shown)
VH: EVQLVQSGAEVKKPGASVKVSCKVSGYTLTELSMHWVRQTPGKGLEWMGGFDPEDGETIYAQKFQGRVTMTEDTSTDTAYMELSSLRSEDTAVYYCATTWFGELYYWGQGTLVTVSS
VL: ETTLTQSPGTLSLSPGERATLSCRASQSVSSGYLAWYQQKPGQAPRLLIYDASSRATGIPDRFSGSGSGADFTLTISRLQPEDFAVYYCQQYGSSRPGLTFGGGTRVEIK
As for B2, the binding result in assay [4] and in assay [5] was “binds” in each case.

B3: anti-LAG-3 antibody clone F5 in IgG1 format (antibody, V domains shown)
VH: EVQLVQSGAEVKKPGASVKVSCKVSGYTLTELSMHWVRQTPGKGLEWMGGFDPEDGETIYAQKFQGRVTMTEDTSTDTAYMELSSLRSEDTAVYYCATTWFGELYYWGQGTLVTVSS
VL: ETTLTQSPGTLSLSPGERATLSCRASQSVSSGYLAWYQQKPGQAPRLLIYDASSRATGIPDRFSGSGSGADFTLTISRLQPEDFAVYYCQQYGSSRPGLTFGGGTRVEIK
Regarding B3, the binding entry in assay [6] and in assay [7] was “binds” throughout.

(Values after patent US20190040136A1.)
